# Assay results as given in PubChem BioAssay (NCATS).
# “And” between values parts separate entries of the source, which are not always exact repeats. Identical values can stand only once. The list shows a part of the results. Further columns of the screen follow, without active or inactive calls. The list favours compounds with an active or inconclusive main result. Words in brackets tell the shape of the fitted curve; partial curves, single points and poor fits give uncertain potencies.
# Assay: qHTS assay for small molecule antagonists of peroxisome proliferator-activated receptor gamma signaling (AID 588537)
# Settings: HEK293 PPARg-UAS-bla, beta-lactamase ratio, antagonist mode; measured here: W460 blue channel
# Outline: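 Antagonist-mode β-lactamase reporter screen run as a titration series. HEK293 PPARγ-UAS-bla cells are stimulated with rosiglitazone (50 nM final) for 16 h, then CCF4 is read at 460/530 nm. Data are scaled between DMSO and rosiglitazone and fitted to the Hill equation.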
row,Compound,AC50
1,C=CCOC(Cn1ccnc1)c1ccc(Cl)cc1Cl (centres undefined),"7.08 µM [falling, partial curve, poor fit] and 50.1 µM [falling, partial curve, poor fit]"
2,CCNc1nc(NCC)nc(SC)n1,"39.8 µM [falling, partial curve, poor fit]"
3,CCOC(=O)CBr,"50.1 µM [rising, single point]"
4,CC(Cl)(Cl)Cl,"4.47 µM [falling, partial curve, poor fit]"
